Results as given in PubChem BioAssay AID236 (DTP/NCI, 2004).
The list does not hold the whole screen: it is rich in T/C values a quarter to a half above the control, in often repeated tests (any T/C) and in doses without a T/C. Further doses and runs are listed elsewhere. T/C: endpoint of the treated group in % of that of the vehicle group. Some doses have a count of surviving animals in place of a T/C: the source files T/C as zero there, which appears to mark a toxic dose or a test without result, not a measured value. Some survivor counts are full or nearly so, which does not show that the dose was tolerated: survival well below the control is almost never listed, so the zero probably covers shortened survival too. Survivors were counted at the toxicity check, usually on the fifth day, unless a day is given; later deaths do not show. Schedules are NCI's codes, taken here to give the interval after Q, in days (D) or hours (H), and the number of doses after X. Some doses were run more than once; the results are listed from low to high. Some schedule codes hold Z or #, which are not explained here. For survival time, the PubChem record calls one and a half times the control and up active, and a quarter to a half above the control has no call in these data; cut-offs in other NCI protocols can differ. Some T/C values are followed by the survivors on the day toxicity was checked, most often the fifth; without a count, all were alive then.

Test system: AK4 lymphoid leukemia ip, C3AKF1 mice, survival
Assay: NCI In Vivo Anticancer Drug Screen. Data for tumor model AK4 Lymphoid Leukemia (intraperitoneal) in C3AKF1 (CHKRF1) mice
Conditions: T/C endpoint: median survival time, higher T/C = longer survival
Procedure: The antitumor activity of compounds was measured in mice bearing transplantable tumors. Survival or tumor size were measured and the results are expressed as the measurement made in the treated group (T) divided by the measurement made in the vehicle treated control group (C). The tumor model used in this assay is AK4 Lymphoid Leukemia (intraperitoneal) in C3AKF1 (CHKRF1) mice

[1] = dose: 0.4 mg/kg/injection, schedule: Q01DX010 (ip), vehicle: other
[2] = dose: 50.0 mg/kg/injection, schedule: Q01DX010 (ip), vehicle: saline
[3] = dose: 40.0 mg/kg/injection, schedule: Q01DX010 (ip), vehicle: saline

Q: With Nc1nc(N)c2nc(CNc3ccc(C(=O)NC(CCC(=O)O)C(=O)O)cc3)cnc2n1 (stereo not given) as the compound, how does the T/C (dose: 0.05 mg/kg/injection, schedule: Q01DX010 (ip), vehicle: other) read?
A: Its T/C is 130 % of control.

Q: And the T/C [1]?
A: Its T/C is 130 % of control.

Q: What about the survivor count [1] of the same compound?
A: Its survivor count is 0 of 6.

Q: What does the source list for CN(Cc1cnc2nc(N)nc(N)c2n1)c1ccc(C(=O)N[C@@H](CCC(=O)O)C(=O)O)cc1?
A: T/C (dose: 0.19 mg/kg/injection, schedule: Q01DX Z (ip), vehicle: saline): 133 % of control; T/C (dose: 0.38 mg/kg/injection, schedule: Q01DX Z (ip), vehicle: saline): 144 % of control; T/C (dose: 1.5 mg/kg/injection, schedule: Q01DX Z (ip), vehicle: saline): 144 and 146 % of control; T/C (dose: 3.0 mg/kg/injection, schedule: Q01DX010 (ip), vehicle: other): 131 % of control [4 of 6 alive]; survivor count (dose: 3.0 mg/kg/injection, schedule: Q01DX Z (ip), vehicle: saline): 3 of 6 and 6 of 6

Q: With O[C@H](CN1CC1)[C@@H](O)CN1CC1 as the compound, how does the T/C (dose: 125.0 micrograms/kg/injection, schedule: Q01DX010 (ip), vehicle: saline) read?
A: Its T/C is 129 % of control.

Q: What about the T/C (dose: 500.0 micrograms/kg/injection, schedule: Q01DX010 (ip), vehicle: saline) of the same compound?
A: The T/C was 147 % of control.

Q: Which survivor count [2] does the source give for Cc1cc2nc3c(=O)[nH]c(=O)nc-3n(CC(O)C(O)C(O)C(O)CO)c2cc1C (stereo not given) here?
A: The survivor count was 6 of 6.

Q: What about the survivor count (dose: 100.0 mg/kg/injection, schedule: Q01DX010 (ip), vehicle: saline) of the same compound?
A: Its survivor count is 6 of 6.

Q: Which T/C (dose: 5.0 mg/kg/injection, schedule: Q01DX010 (ip), vehicle: other) does the source give for Nc1nc(=S)c2[nH]cnc2[nH]1 here?
A: The T/C was 128 % of control.

Q: What about the T/C (dose: 10.0 mg/kg/injection, schedule: Q01DX010 (ip), vehicle: other) of the same compound?
A: Its T/C is 135 % of control.

Q: With CN(N=O)C(=O)NC(C=O)C(O)C(O)C(O)CO (stereo not given) as the compound, how does the T/C (dose: 27.0 mg/kg/injection, schedule: Q01DX010 (ip), vehicle: saline) read?
A: The T/C was 125 % of control.

Q: And the T/C [3]?
A: The T/C was 143 % of control.

Q: How did the survivor count [3] turn out when C[n+]1c2ccccc2nc2c(N)cc(N)cc21 was run?
A: The survivor count was 0 of 6.

Q: How did the survivor count (dose: 16.0 mg/kg/injection, schedule: Q01DX010 (ip), vehicle: saline) turn out when CN1CC[C@]23c4c5ccc(O)c4O[C@H]2C(=O)CC[C@H]3[C@H]1C5 was run?
A: The survivor count was 6 of 6.

Q: And the survivor count (dose: 32.0 mg/kg/injection, schedule: Q01DX010 (ip), vehicle: saline)?
A: Its survivor count is 6 of 6.

Q: O=P1(N(CCCl)CCCl)NCCCO1 (stereo not given) was tested. Which T/C (dose: 11.3 mg/kg/injection, schedule: Q01DX010 (ip), vehicle: saline) did it give?
A: The T/C was 130 % of control.

Q: For C[C@]12C=CC(=O)C=C1CC[C@@H]1[C@@H]2[C@@H](O)C[C@@]2(C)[C@H]1CC[C@]2(O)C(=O)CO, which survivor count (dose: 25.0 mg/kg/injection, schedule: Q01DX010 (sc), vehicle: steroid suspending solution) is on record?
A: Its survivor count is 6 of 6.

Q: Which results are given for [I][Hg][CH2]C1COC([CH2][Hg][I])CO1 (stereo not given)?
A: survivor count (dose: 6.25 mg/kg/injection, schedule: Q01DX010 (ip), vehicle: saline): 6 of 6; survivor count (dose: 12.5 mg/kg/injection, schedule: Q01DX010 (ip), vehicle: saline): 6 of 6; survivor count (dose: 25.0 mg/kg/injection, schedule: Q01DX010 (ip), vehicle: saline): 6 of 6; survivor count [2]: 4 of 6 and 6 of 6
